Patent US20140128357A1, “METHODS OF PRODUCING AND USING BRASSINOSTEROIDS TO PROMOTE GROWTH, REPAIR AND MAINTENANCE OF SKELETAL MUSCLE AND SKIN” (Rutgers University, priority 2010, published 2014)

Assays:
[1] = Body composition and blood biochemistry, rats on normal diet, 24 d oral HB (Protocol 1); type: in vivo, rat; conditions: for Glucose: fasted; for Cholesterol / Insulin: plasma
Description: (§1) Six-week-old male Wistar rats (180-220 g, Charles River Laboratories, MA) were housed in individual chambers in a room maintained at a constant room temperature with 12 h light-dark cycle. Animals had free access to food and water. Animals were allowed to adapt to new conditions for 7 d and handling the animals was carried out daily during this time to reduce the stress of physical manipulation. Animals were randomized into groups according to bodyweight 1 d prior to dosing.
The body weight of each animal and the total amount of food consumed (accounted for spillage) were recorded every 2 d for the duration of the experiment. At the end of the experiment, blood was collected by heart puncture after CO2 inhalation and animal body composition was assessed by DEXA dual-energy X-ray absorptiometry analysis using a Lunar Prodigy Densitometer (GE Healthcare, Waukesha, Wis.). At necropsy, tissue weights were recorded. Tissue samples were collected by snap-freezing in liquid nitrogen and stored at −80° C. for further studies. Total RNA was isolated using Trizol, its quantity and purity were determined using a NanoDrop (Nanodrop Technologies, Wilmington, Del.).
(§2) Blood samples were taken from overnight-fasted animals by heart puncture, collected in EDTA-coated tubes, centrifuged 1,500 g for 20 min, and separated plasma was stored at −80° C. until analysis. Glucose was measured in blood samples using a Lifescan glucometer (Johnson and Johnson, New Brunswick, N.J.). […] Plasma triglycerides and total cholesterol were measured by enzymatic colorimetric assays (Wako Diagnostics, Richmond, Va.). Total testosterone in plasma samples was quantified by an ELISA assay (DRG Diagnostics, Marburg, Germany).

[2] = Body composition and blood biochemistry, rats on high-protein diet, 24 d oral HB (Protocol 2); type: in vivo, rat; conditions: for Glucose: fasted; for Cholesterol / Insulin / Triglycerides: plasma
Description: as §1
Protocol 2: Three groups of Wistar rats (n=8), fed a high-protein diet containing 39.4% protein, 10.0% fat, 4.3% fiber, and 37.0% carbohydrates, resulting in 3.93 kcal/g energy value (#5779 diet, Testdiet/Purina, Richmond, Ind.), were gavaged daily for 24 d with 1 ml of vehicle (5% DMSO in corn oil), 20 or 60 mg/kg HB. All procedures and measurements followed protocol 1.
as §2

For `CC[C@@H](C(C)C)[C@H](O)[C@@H](O)[C@@H](C)[C@H]1CC[C@H]2[C@@H]3COC(=O)[C@H]4C[C@H](O)[C@H](O)C[C@]4(C)[C@H]3CC[C@]12C` [Compound 1, (22S,23S,24S)-2α,3α,22,23-tetrahydroxy-24 ethyl-β-homo-7-oxo-5α-cholestane-6-one], the “total daily food intake” value ([1]; 20 mg/kg oral daily 24 d) was 22.2 ± 0.8 g, the Glucose ([1]; 20 mg/kg oral daily 24 d) was 5.1 ± 0.5 mM and the Cholesterol ([1]; 20 mg/kg oral daily 24 d) was 69.9 ± 6.0 mg/dL. For the same molecule, the Insulin ([1]; 20 mg/kg oral daily 24 d) was 2.39 ± 0.58 ng/mL, the “total daily food intake” value ([1]; 60 mg/kg oral daily 24 d) was 23.6 ± 0.5 g and the Glucose ([1]; 60 mg/kg oral daily 24 d, listed as HB, 60 mg/kg) was 4.5 ± 0.3 mM. It also gave a Cholesterol ([1]; 60 mg/kg oral daily 24 d) of 84.2 ± 5.3 mg/dL, an Insulin ([1]; 60 mg/kg oral daily 24 d) of 2.65 ± 0.45 ng/mL and a Glucose ([2]; 20 mg/kg oral daily 24 d) of 5.1 ± 0.2 mM. For the same molecule, the Cholesterol ([2]; 20 mg/kg oral daily 24 d) was 97.5 ± 6.0 mg/dL, the Insulin ([2]; 20 mg/kg oral daily 24 d) was 2.39 ± 0.34 ng/mL and the Triglycerides ([2]; 20 mg/kg oral daily 24 d) was 1.2 ± 0.1 mM. It also gave a Glucose ([2]; 60 mg/kg oral daily 24 d) of 4.8 ± 0.2 mM, a Cholesterol ([2]; 60 mg/kg oral daily 24 d) of 87.4 ± 2.9 mg/dL and an Insulin ([2]; 60 mg/kg oral daily 24 d) of 2.38 ± 0.41 ng/mL. It also gave a Triglycerides ([2]; 60 mg/kg oral daily 24 d) of 1.3 ± 0.1 mM.
